# Results published in PubChem BioAssay (NCATS).
# This list was built around the results that the source calls inconclusive (neither active nor inactive); the mix of calls is not that of the screen. Potencies of inconclusive entries are doubtful fits and often do not repeat. Calls of active or inactive are those of the source. Calls come from the whole dose curve; as a rule, active = well fitted cell-killing curve with a large enough effect; inconclusive = small, poorly fitted or top-dose-only effect, or effect the other way; inactive = no such curve, though single readings can be large or run the other way. Where a SMILES comes first, the peptide text is derived from it. [ ]: non-standard residue; d: D form. The star is where a group is joined. Nva = CCC[C@H](N)C(=O)O; Cbz = O=C(OCc1ccccc1)*
# Assay: Quantitative High-Throughput drug screen in 47 multiple myeloma cell lines against the NCATS MIPE library collection: FR4_PLB cell viability assay (AID 1918924; note: nearly all actives have a fitted effect of over 35% in size;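 for viability (% of DMSO control): 100% = DMSO-treated cells and 0% = wells with media only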)
# Settings: FR4_PLB myeloma cells viability, CellTiter-Glo ATP, 48 h; viability (% of DMSO control): at 45.8 µM (top of the series)
# In short: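 qHTS of the MIPE 4.0 collection: 500 myeloma cells/well, 48 h drug exposure at 37C in 5% CO2, then CellTiter-Glo for 5 min at room temperature before luminescence reading.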
# Potency is the fitted concentration of half-maximal effect.
SMILES,viability (% of DMSO control),Potency
CC=CC1=C(C(=O)O)N2C(=O)[C@H](NC(=O)[C@H](N)c3ccc(O)cc3)[C@@H]2SC1,inactive: 98.5%,
COc1cc(OC2CCN(C)CC2)ccc1Nc1ncc2c(n1)n(C1CCCC1)c(=O)n2C,,"inconclusive: 20.9 µM [cytotoxic, partial curve]"
c1cncc(CN2CCC(n3ncc4c(N5CCOCC5)nc(-c5ccc6[nH]ccc6c5)nc43)CC2)c1,,active: 4.69 µM
Cn1cc(-c2ccc3nnc(Sc4ccc5ncccc5c4)n3n2)cn1,inactive: 129%,
O=C(Nc1nnc(-c2ccco2)o1)c1cc(-c2ccccc2)nc2ccccc12,,active: 23.5 µM
C=C1CCC2[C@](C)(CO)C(O)CC[C@]2(C)C1CC=C1C(=O)OCC1O (stereo partly drawn),,"inconclusive: 38.2 µM [cytotoxic, partial curve, poor fit]"
CC(C)[N+]1(C)[C@@H]2CC[C@H]1CC(OC(=O)C(CO)c1ccccc1)C2 (stereo partly drawn),inactive: 133%,
CC(C)(CO)[C@@H](O)C(=O)NCCC(=O)O,,"inconclusive: 37.2 µM [rising, single point]"
O=C(O)CCNC(=O)c1ccc(N=Nc2ccc(O)c(C(=O)O)c2)cc1,inactive: 115%,
CCC[C@@H](C=O)NC(=O)[C@H](CC(C)C)NC(=O)[C@H](CC(C)C)NC(=O)OCc1ccccc1 (Cbz-Leu-Leu-[Nva]-aldehyde),,active: 0.833 µM
CC(C)(N)c1ccc(-c2nc3ccccc3nc2-c2ccccc2)cc1,,"inconclusive: 33.2 µM [cytotoxic, single point]"
CN[C@@H]1CN(c2ccc3c(=O)c(C(=O)O)cn(-c4nccs4)c3n2)C[C@@H]1OC,,"inconclusive: 3.23 µM [cytotoxic, partial curve, poor fit]"
Cc1cc(C(C)Nc2ccccc2)c2nc(N3CCOCC3)cc(=O)n2c1 (stereo not drawn),,"inconclusive: 37.2 µM [cytotoxic, single point]"
O=C(Nc1cccc(Cl)c1)Nc1ncc(CCNc2ncnc3ccsc23)s1,,active: 6.62 µM
COc1cc(NCc2ccc3nc(N)nc(N)c3c2C)cc(OC)c1OC,,active: 16.6 µM
CCCCc1oc2ccc(NS(C)(=O)=O)cc2c1C(=O)c1ccc(OCCCN(CCCC)CCCC)cc1,,active: 16.6 µM
O=S(=O)(NCCNCC=Cc1ccc(Br)cc1)c1cccc2cnccc12,,"inconclusive: 29.6 µM [cytotoxic, single point]"
Cc1ccc(NC(=O)c2cccc(C(C)(C)C#N)c2)cc1Nc1ccc2ncn(C)c(=O)c2c1,,"inconclusive: 18.7 µM [cytotoxic, partial curve]"
Cc1cc(-c2nnc3n2CCCCC3)c(C)n1-c1ccccc1,inactive: 116%,

SMILES,viability (% of DMSO control),Potency
C[C@H](c1ccc(F)cc1CCCC(=O)O)N(c1cc(F)ccc1F)S(=O)(=O)c1ccc(Cl)cc1,,"inconclusive: 2.09 µM [cytotoxic, partial curve, poor fit]"
CN1CCC[C@H]1CCO[C@](C)(c1ccccc1)c1ccc(Cl)cc1,,"inconclusive: 41.8 µM [cytotoxic, partial curve, poor fit]"
Nc1ccn([C@@H]2CS[C@H](CO)O2)c(=O)n1,inactive: 108% [at 92.2 µM],
O=C(NC[C@H](O)CO)c1ccncc1Nc1ccc(I)cc1F,,"inconclusive: 18.7 µM [cytotoxic, partial curve, poor fit]"
CCC1(C)CC(=O)NC1=O (stereo not drawn),,"inconclusive: 0.0019 µM [rising, full curve, poor fit]"
CN1CCCN(C(=O)c2cccc(-c3ccc(C=C4C(=O)Nc5ccc(Cl)cc54)o3)c2)CC1,,active: 26.4 µM
COc1ccc2c(c1)c(C1=C(c3c[nH]c4ccccc34)C(=O)NC1=O)cn2CCCN(C)C,,"inconclusive: 26.4 µM [cytotoxic, single point]"
C=CCc1cccc(C=NNC(=O)CN2CCN(Cc3ccccc3)CC2)c1O,,"inconclusive: 7.43 µM [cytotoxic, full curve]"
Cc1n[nH]c(C)c1Cc1sc2c(c1C(=O)N1C[C@H](O)CO1)c(=O)n(C)c(=O)n2CC(C)C,inactive: 100%,
N#Cc1c(NC(=O)c2cccc3ccccc23)sc2c1CCCC2,,active: 0.209 µM
CNC(=O)[C@H](CC1=CN=C2C=CCC=C12)NC(=O)[C@@H](CC(=O)NO)CC(C)C,inactive: 90.4%,
CC(Cc1ccc(O)c(O)c1)(NN)C(=O)O (stereo not drawn),,"inconclusive: 33.2 µM [cytotoxic, single point]"
Cc1ccc(S(=O)(=O)NC(=O)NN2CC3CCCC3C2)cc1 (stereo not drawn),,"inconclusive: 33.2 µM [cytotoxic, single point]"
COc1cc(C=CC(=O)O)ccc1O,,inconclusive: 0.001 µM
Cc1cc(OCCCS(C)(=O)=O)cc(C)c1-c1cccc(COc2ccc3c(c2)OC[C@H]3CC(=O)O)c1,,"inconclusive: 0.209 µM [cytotoxic, full curve, poor fit]"
CCc1cncnc1N1CCN(Cc2nc3ccc(C(F)(F)F)cc3[nH]2)CC1,,"inconclusive: 20.9 µM [cytotoxic, partial curve]"
CC(C)c1ccccc1Cc1cc(C(=O)Nc2ccc(S(=O)(=O)c3ccccc3C(C)(C)C)cc2)c(O)c(O)c1O,,active: 9.35 µM
CCC(C)(C)c1ccc(CC(C)CN2C[C@@H](C)O[C@@H](C)C2)cc1 (stereo partly drawn),,"inconclusive: 29.6 µM [cytotoxic, single point]"
COc1c(C)cnc(Cn2cnc3c(Cl)nc(N)nc32)c1C,,"inconclusive: 0.132 µM [cytotoxic, full curve]"

# Already shown: two of the compounds above.
SMILES,viability (% of DMSO control),Potency
CC(C)c1ccccc1Cc1cc(C(=O)Nc2ccc(S(=O)(=O)c3ccccc3C(C)(C)C)cc2)c(O)c(O)c1O,,active: 9.35 µM
CCC(C)(C)c1ccc(CC(C)CN2C[C@@H](C)O[C@@H](C)C2)cc1 (stereo partly drawn),,"inconclusive: 29.6 µM [cytotoxic, single point]"
